Reference: ChEMBL document CHEMBL4303097 (2020)
Most of the highest values are listed elsewhere, so they are rarer here than in the full data.

The molecules below were run on SARS-CoV-2 (assay: Inhibition of cell viability relative to arbidol control (inhibition index > 1 indicates higher activity) measured by fluorescence (OD590nm) in Vero E6 cells infected with SARS-CoV-2 (strain BavPat1) at MOI 0.002 after 72hrs).
Format: functional, Chlorocebus sabaeus, Vero C1008

| SMILES | Inhibition index |
| --- | --- |
| Br.CN1[C@@H]2CC[C@H]1C[C@@H](OC(=O)C(O)c1ccccc1)C2 (some centres not stated) [HOMATROPINE HYDROBROMIDE] | 0.04131 |
| CCC(C)C(C(=O)OCC[N+](C)(CC)CC)c1ccccc1.[Br-] (configuration not stated) [VALETHAMATE BROMIDE] | 0.2742 |
